Results on 46 sequences are retold here after patent US20220098591.

The chains behind the UniProt entries cited, without tags or fusion partners. A line that says so, or that is headed by a name, gives the form on record, which may keep a tag or linker.
UniProt P15692, other isoform, or with tags, fused parts or gaps: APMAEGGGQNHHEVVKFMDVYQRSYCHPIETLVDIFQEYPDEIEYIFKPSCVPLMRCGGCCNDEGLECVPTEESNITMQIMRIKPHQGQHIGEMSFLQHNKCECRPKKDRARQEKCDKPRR

For some of these results: Weaker means in comparison with the reference protein, sequence or condition of that experiment. The exact form of at least one protein or probe is not confirmed. For some of these results: Whether high values mean tight binding is not given here for every scale.

The target in series [1] is VEGF-A121 (Homo sapiens) (UniProt P15692). Put plainly: activity in cells. As to conditions: 2'-F G, 2'-OMe A,C,U, 5' C6NH2, 3' idT, KDR phosphorylation, VEGF-A isoform not stated for this column, purified recombinant protein, dose not given here.
The target is the same in series [2]. Put plainly: competition with a labelled probe. As to conditions: 5' C6NH2, 3' idT, purified recombinant protein.
Setting [3] is: 2'-F G except 2'-OMe G at 6,22,39,42 (Aptamer 141 numbering), 2'-OMe A,C,U, SP3 spacer between parts.
Setting [4] is: all G 2'-F, A,C,U 2'-OMe, variant of Aptamer 26.
Setting [5] is: 2'-F G except 2'-OMe G at 39 (Aptamer 141 numbering), 2'-OMe A,C,U, SP3 spacer between parts.

With “AGGCCGCCUCCGCGCGGAGGGUUUCAUUAUCCCGUUUGGCGGCUU [Aptamer 58]”, the functional effect of the aptamer (fold worse than Aptamer 26) in the series with VEGF-A121 (Homo sapiens) [1] (SP3 spacer at position 20 between parts) is over 100.
“AGGCCGCCUCGCGCGGAGGGGUUUCAUUAUCCCGUUUGGCGGCUU [Aptamer 48]”: in the series with VEGF-A121 (Homo sapiens) [1] (SP3 spacer (1,3-propanediol) at position 10 between parts), the functional effect of the aptamer (fold worse than Aptamer 26) was over 100.
For “AGGCCGCCUCCGCGCGGAGGGUUUCAUUAUCCCGUUUGGCGGCUU [Aptamer 60]”, the functional effect of the aptamer (fold worse than Aptamer 26) with VEGF-A121 (Homo sapiens) [1] (SP3 spacer at position 22 between parts) is over 100.
Take “AGGCCGACCCGCGCGGAGGGGUUUCAUUACCCCGUUUGUCGGCUU [Aptamer 201]”: in the series with VEGF-A121 (Homo sapiens) [2] (2'-F G except 2'-OMe G at 6,22,39, 2'-OMe A,C,U, SP3 spacer at 9 between parts), the binding result is reported as “binds”.
For the sequence “CGACCCGCGCGGAGGGAUCUCAUGAUCCCGUUUGUCG [Aptamer 297]”, the binding result in the series with VEGF-A121 (Homo sapiens) [2] (2'-F G except 2'-OMe G at 6,29,39,42 (Aptamer 141 numbering), 2'-OMe A,C,U, SP3 spacer between parts) is reported as “binds”.
Take “CGACCCGCGCGGAGGGGUAUCAUUACCCCGUUUGUCG [Aptamer 290]”: in the series with VEGF-A121 (Homo sapiens) [2] (setting [3]), the binding result is reported as “binds”.
Take “CCCGCGCGGAGGGGUUUCAUUAUCCCGUUUG [Aptamer 279]”: in the series with VEGF-A121 (Homo sapiens) [2] (2'-F G except 2'-OMe G at 22 (Aptamer 141 numbering), 2'-OMe A,C,U, SP3 spacer between parts), the binding signal (fold worse than Aptamer 141) is over 100.
For the sequence “CCGACCCGCGCGGAGGGGUUUCAUUAUCCCGUUUGUCGGC [Aptamer 224]”, the binding result with VEGF-A121 (Homo sapiens) [2] (2'-F G except 2'-OMe G at 6,22,42,43 (Aptamer 141 numbering), 2'-OMe A,C,U, SP3 spacer between parts) is “binds”.
For the sequence “CGACCCGCGCGGAGGGAUGUCAUCAUCCCGUUUGUCG [Aptamer 296]”, the binding result with VEGF-A121 (Homo sapiens) [2] (2'-F G except 2'-OMe G at 6,24,39,42 (Aptamer 141 numbering), 2'-OMe A,C,U, SP3 spacer between parts) was “binds”.
For the sequence “AGGCCGCCUCUGCGCAGAGGGGUUUCAUUAUCCCGUUUGGCGGCUU [Aptamer 179]”, the binding result with VEGF-A121 (Homo sapiens) [2] (setting [4]) is reported as “binds more weakly”.
As to “CCGACCCGCGCGGAGGGGUUUCAUUAUCCCGUUUGUCGGC [Aptamer 227]”, in the series with VEGF-A121 (Homo sapiens) [2] (2'-F G except 2'-OMe G at 6,22,39,42,43 (Aptamer 141 numbering), 2'-OMe A,C,U, SP3 spacer between parts), the binding result is “binds”.
In the case of “CCGACCCGCGCGGAGGGGUUUCAUUAUCCCGUUUGUCGGC [Aptamer 223]”, in the series with VEGF-A121 (Homo sapiens) [2] (2'-F G except 2'-OMe G at 39,42,43 (Aptamer 141 numbering), 2'-OMe A,C,U, SP3 spacer between parts), the binding result was “binds”.
As to “CGACCCGCGCGGAGGGGUUUCAUUAUCCCGUUUGUCG [Aptamer 233]”, in the series with VEGF-A121 (Homo sapiens) [2] (2'-F G except 2'-OMe G at 22,39,42 (Aptamer 141 numbering), 2'-OMe A,C,U, SP3 spacer between parts), the binding result was “binds”.
As to “CCGACCCGCGCGGAGGGGUUUCAUUAUCCCGUUUGUCGGC [Aptamer 221]”, the binding result with VEGF-A121 (Homo sapiens) [2] (2'-F G except 2'-OMe G at 6,42,43 (Aptamer 141 numbering), 2'-OMe A,C,U, SP3 spacer between parts) was “binds”.
Take “ACCCGCGCGGAGGGGUUUCAUUAUCCCGUUUGU [Aptamer 277]”: in the series with VEGF-A121 (Homo sapiens) [2] (setting [5]), the binding signal (fold worse than Aptamer 141) is over 100.
As to “CGACCCGCGCGGAGGGGUUACAUAAUCCCGUUUGUCG [Aptamer 292]”, in the series with VEGF-A121 (Homo sapiens) [2] (setting [3]), the binding result is given as “binds”.
Turning to “AGGCCGACCCGCGCGGAGGGGUUUCAUUAUCCCGUUUGUCGGCUU [Aptamer 194]”, in the series with VEGF-A121 (Homo sapiens) [2] (2'-F G except 2'-OMe G at 20, 2'-OMe A,C,U, SP3 spacer at 9 between parts), the binding signal (fold worse than Aptamer 141) was over 100.
In the case of “AGGCCGCCUACGCGCGUAGGGGUUUCAUUAUCCCGUUUGGCGGCUU [Aptamer 175]”, the binding result with VEGF-A121 (Homo sapiens) [2] (setting [4]) is reported as “binds more weakly”.
Consider “CGACCCGCGCGGAGGGAUUACAUUAUCCCGUUUGUCG [Aptamer 288]”, for which, in the series with VEGF-A121 (Homo sapiens) [2] (2'-F G except 2'-OMe G at 6,39,42 (Aptamer 141 numbering), 2'-OMe A,C,U, SP3 spacer between parts), the binding result was “binds”.
Consider “AGGCCGCCCCCGCGCGGAGGGGUUUCAUUAUCCCGUUUGGCGGCUU [Aptamer 147]”, for which the binding result in the series with VEGF-A121 (Homo sapiens) [2] (setting [4]) is “binds more weakly”.
For “CGACCCGCGCGGAGGGGUUUCAUUAUCCCGUUUGUCG [Aptamer 298]”, in the series with VEGF-A121 (Homo sapiens) [2] (2'-F G except 2'-OMe G at 6,22,39,42 (Aptamer 141 numbering), 2'-OMe A,C,U, two SP3 spacers between parts), the binding result is recorded as “binds more weakly”.
“GCCGACCCGCGCGGAGGGGUUUCAUUAUCCCGUUUGUCGGC [Aptamer 218]”: the binding result in the series with VEGF-A121 (Homo sapiens) [2] (2'-F G except 2'-OMe G at 3,6,39,42,43 (Aptamer 141 numbering), 2'-OMe A,C,U, SP3 spacer between parts) is “binds”.
With “AGGCCGCCCCGCGCGGAGGGGUUUCAUUAUCCCGUUUGGCGGCUU [Aptamer 79]”, the binding result with VEGF-A121 (Homo sapiens) [2] (setting [4]) is recorded as “binds more weakly”.
For “AGGCCGCCUUCGCGCGAAGGGGUUUCAUUAUCCCGUUUGGCGGCUU [Aptamer 176]”, in the series with VEGF-A121 (Homo sapiens) [2] (setting [4]), the binding result was “binds more weakly”.
“CGACCCGCGCGGAGGGGUAUCAUUAUCCCGUUUGUCG [Aptamer 283]”: the binding result with VEGF-A121 (Homo sapiens) [2] (setting [3]) is given as “binds”.
As for “AGGCCGCCUCCGCGCGGAGGGGUUUCAUUAUCCCGAUUGGCGGCUU [Aptamer 165]”, the binding result in the series with VEGF-A121 (Homo sapiens) [2] (setting [4]) is reported as “binds more weakly”.
For “AGGCCGCCUCCGCGCGGAGGGGUUCAUUACCCGUUUGGCGGCUU [Aptamer 109]”, the binding result in the series with VEGF-A121 (Homo sapiens) [2] (setting [4]) is “binds more weakly”.
On to “CCGACCCGCGCGGAGGGGUUUCAUUAUCCCGUUUGUCGGC [Aptamer 222]”, for which the binding result in the series with VEGF-A121 (Homo sapiens) [2] (2'-F G except 2'-OMe G at 22,42,43 (Aptamer 141 numbering), 2'-OMe A,C,U, SP3 spacer between parts) was “binds”.
In the case of “AGGCCGCCUGCGCGCGCAGGGGUUUCAUUAUCCCGUUUGGCGGCUU [Aptamer 174]”, in the series with VEGF-A121 (Homo sapiens) [2] (setting [4]), the binding result is on record as “binds more weakly”.
For the sequence “AGGCCGACCCGCGCGGAGGGGUUUCAUUAUCCCGUUUGUCGGCUU [Aptamer 188]”, the binding result with VEGF-A121 (Homo sapiens) [2] (2'-F G except 2'-OMe G at 6, 2'-OMe A,C,U, SP3 spacer at 9 between parts) was “binds”.
Take “AGGCCGAAUCCGCGCGGAGGGGUUUCAUUAUCCCGUUUUUCGGCUU [Aptamer 133]”: the binding result in the series with VEGF-A121 (Homo sapiens) [2] (setting [4]) is “binds more weakly”.
With “CGACCCGCGCGGAGGGGUUUCAUUAUCCCGUUUGUCG [Aptamer 228]”, the binding result with VEGF-A121 (Homo sapiens) [2] (2'-F G except 2'-OMe G at 6,42 (Aptamer 141 numbering), 2'-OMe A,C,U, SP3 spacer between parts) is listed as “binds”.
For “CGACCCGCGCGGAGGGGUUUCAUUAUCCCGUUUGUCG [Aptamer 300]”, in the series with VEGF-A121 (Homo sapiens) [2] (2'-F G except 2'-OMe G at 6,22,39,42 (Aptamer 141 numbering), 2'-OMe A,C,U, SP9 spacer (triethyleneglycol) between parts), the binding result was “binds more weakly”.
For “GACCCGCGCGGAGGGGUUUCAUUAUCCCGUUUGUC [Aptamer 237]”, the binding result with VEGF-A121 (Homo sapiens) [2] (setting [5]) is recorded as “binds”.
On to “AGGCCGGCUCCGCGCGGAGGGGUUUCAUUAUCCCGUUUGCCGGCUU [Aptamer 124]”, for which, in the series with VEGF-A121 (Homo sapiens) [2] (setting [4]), the binding result was “binds more weakly”.
With “AGGCCGCCUCCGCGCGGAGGGGUUUCAUUAUCCCGUAUGGCGGCUU [Aptamer 168]”, the binding result with VEGF-A121 (Homo sapiens) [2] (setting [4]) was “binds more weakly”.
On to “CGACCCGCGCGGAGGGGUUUCAUAACCCCGUUUGUCG [Aptamer 291]”, for which, in the series with VEGF-A121 (Homo sapiens) [2] (setting [3]), the binding result is reported as “binds”.
With “AGGCCGCCUCCGGGCGGAGGGGUUUCAUUAUCCCGUUUGGCGGCUU [Aptamer 153]”, in the series with VEGF-A121 (Homo sapiens) [2] (setting [4]), the binding result was “binds more weakly”.
For “AGGCCGCCUCCGCGCGGAGGGGUUUCAUUAUCCCGUGUGGCGGCUU [Aptamer 170]”, in the series with VEGF-A121 (Homo sapiens) [2] (setting [4]), the binding result is “binds more weakly”.
Take “CCGACCCGCGCGGAGGGGUUUCAUUAUCCCGUUUGUCGGC [Aptamer 226]”: the binding result in the series with VEGF-A121 (Homo sapiens) [2] (2'-F G except 2'-OMe G at 22,39,42,43 (Aptamer 141 numbering), 2'-OMe A,C,U, SP3 spacer between parts) is given as “binds”.
Consider “AGGCCGACCCGCGCGGAGGGGUUUCAUUAUCCCGUUUGUCGGCUU [Aptamer 191]”, for which the binding result with VEGF-A121 (Homo sapiens) [2] (2'-F G except 2'-OMe G at 16, 2'-OMe A,C,U, SP3 spacer at 9 between parts) was “binds more weakly”.
Take “AGGCCGACCCGCGCGGAGGGGUUUCAUUAUCCCGUUUGUCGGCUU [Aptamer 190]”: the binding result with VEGF-A121 (Homo sapiens) [2] (G 2'-F except G14 2'-OMe, A,C,U 2'-OMe, Sp3 joins the two parts, variant of Aptamer 141) is recorded as “binds more weakly”.
Turning to “CGACCCGCGCGGAGGGGUUUCAUUAUCCCGUUUGUCG [Aptamer 229]”, the binding result in the series with VEGF-A121 (Homo sapiens) [2] (2'-F G except 2'-OMe G at 22,42 (Aptamer 141 numbering), 2'-OMe A,C,U, SP3 spacer between parts) is “binds”.
Turning to “CGACCCGCGCGGAGGGGUUUCAUUACCCCGUUUGUCG [Aptamer 286]”, the binding result in the series with VEGF-A121 (Homo sapiens) [2] (setting [3]) is recorded as “binds”.
Turning to “AGGCCGACCCGCGCGGAGGGGUUUCAUUAUCCCGUUUGUCGGCUU [Aptamer 193]”, the binding signal (fold worse IC50 vs Aptamer 141) in the series with VEGF-A121 (Homo sapiens) [2] (G 2'-F except G19 2'-OMe, A,C,U 2'-OMe, Sp3 joins the two parts, variant of Aptamer 141) is over 100.
As for “GCCGACCCGCGCGGAGGGGUUUCAUUACCCCGUUUGUCGGC [Aptamer 213]”, the binding signal (fold better than Aptamer 141) with VEGF-A121 (Homo sapiens) [2] (2'-F G except 2'-OMe G at 3,42,43 (Aptamer 141 numbering), 2'-OMe A,C,U, SP3 spacer between parts) was found to be 2.
